Experimental data reported in PMC11226457.
Results are given in words; binding and its absence hold for the method and conditions named. Binding seen in cells or lysates may run through a third protein. Some binding calls cover weakened binding; strength is not graded here. Sequences can lack the tags named with a protein.

Biological target: T1, vinculin T12 eGFP (UniProt P12003)
T1 sequence: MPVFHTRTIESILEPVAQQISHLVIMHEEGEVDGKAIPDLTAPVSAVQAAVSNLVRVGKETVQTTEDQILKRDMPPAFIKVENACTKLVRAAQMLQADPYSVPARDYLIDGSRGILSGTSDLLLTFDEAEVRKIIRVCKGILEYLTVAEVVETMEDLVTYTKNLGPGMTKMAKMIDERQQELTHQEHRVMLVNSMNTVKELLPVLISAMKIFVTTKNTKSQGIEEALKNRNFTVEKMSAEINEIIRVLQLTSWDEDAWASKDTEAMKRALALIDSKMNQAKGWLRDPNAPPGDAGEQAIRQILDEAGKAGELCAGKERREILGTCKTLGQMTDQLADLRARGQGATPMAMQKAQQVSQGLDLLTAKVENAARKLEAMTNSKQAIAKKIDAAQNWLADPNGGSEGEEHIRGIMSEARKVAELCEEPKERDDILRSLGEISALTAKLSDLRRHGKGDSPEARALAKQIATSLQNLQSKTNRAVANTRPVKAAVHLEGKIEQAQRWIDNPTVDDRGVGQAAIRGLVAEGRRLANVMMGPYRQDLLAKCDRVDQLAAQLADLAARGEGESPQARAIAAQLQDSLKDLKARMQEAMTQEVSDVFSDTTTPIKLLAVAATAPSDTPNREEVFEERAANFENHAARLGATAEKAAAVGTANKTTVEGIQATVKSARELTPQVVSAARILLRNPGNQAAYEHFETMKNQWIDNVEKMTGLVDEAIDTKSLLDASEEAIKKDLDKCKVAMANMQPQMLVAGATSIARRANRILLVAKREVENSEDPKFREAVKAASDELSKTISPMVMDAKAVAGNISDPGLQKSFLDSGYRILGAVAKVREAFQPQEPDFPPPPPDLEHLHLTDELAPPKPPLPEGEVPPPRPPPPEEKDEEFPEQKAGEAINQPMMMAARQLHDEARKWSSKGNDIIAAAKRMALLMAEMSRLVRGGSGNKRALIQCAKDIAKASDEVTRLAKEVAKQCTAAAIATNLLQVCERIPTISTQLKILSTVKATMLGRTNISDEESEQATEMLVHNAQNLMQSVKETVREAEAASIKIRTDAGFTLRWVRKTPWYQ
Assay: co-IP; GFP-vinculin constructs transfected in MDCK α-catenin KD (about 90% α-catenin depletion); GFP-Trap_A immunoprecipitation from lysate (50 mM Tris-HCl pH 7.6, 150 mM NaCl, 1% NP-40, 0.5% deoxycholate); blot for endogenous β-catenin

binding: binds
B1: β-catenin (protein, UniProt B6V8E6 1-781)
chain: MATQADLMELDMAMEPDRKAAVSHWQQQSYLDSGIHSGATTTAPSLSGKGNPEEEDVDTTQVLYEWEQGFSQSFTQEQVADIDGQYAMTRAQRVRAAMFPETLDEGMQIPSTQFDAAHPTNVQRLAEPSQMLKHAVVNLINYQDDAELATRAIPELTKLLNDEDQVVVNKAAVMVHQLSKKEASRHAIMRSPQMVSAIVRTMQNTNDVETARCTAGTLHNLSHHREGLLAIFKSGGIPALVKMLGSPVDSVLFYAITTLHNLLLHQEGAKMAVRLAGGLQKMVALLNKTNVKFLAITTDCLQILAYGNQESKLIILASGGPQALVNIMRTYTYEKLLWTTSRVLKVLSVCSSNKPAIVEAGGMQALGLHLTDPSQRLVQNCLWTLRNLSDAATKQEGMEGLLGTLVQLLGSDDINVVTCAAGILSNLTCNNYKNKMMVCQVGGIEALVRTVLRAGDREDITEPAICALRHLTSRHQEAEMAQNAVRLHYGLPVVVKLLHPPSHWPLIKATVGLIRNLALCPANHAPLREQGAIPRLVQLLVRAHQDTQRRTSMGGTQQQFVEGVRMEEIVEGCTGALHILARDVHNRIVIRGLNTIPLFVQLLYSPIENIQRVAAGVLCELAQDKEAAEAIEAEGATAPLTELLHSRNEGVATYAAAVLFRMSEDKPQDYKKRLSVELTSSLFRTEPMAWNETADLGLDIGAQGEPLGYRQDDPSYRSFHSGGYGQDALGMDPMMEHEMGGHHPGADYPVDGLPDLGHAQDLMDGLPPGDSNQLAWFDTDL
